From publication PMC6899342 (PeerJ, 2019)
pKd: −log10 of the molar value.

The chains behind the UniProt entries cited, without tags or fusion partners.
UniProt O56129, whole entry: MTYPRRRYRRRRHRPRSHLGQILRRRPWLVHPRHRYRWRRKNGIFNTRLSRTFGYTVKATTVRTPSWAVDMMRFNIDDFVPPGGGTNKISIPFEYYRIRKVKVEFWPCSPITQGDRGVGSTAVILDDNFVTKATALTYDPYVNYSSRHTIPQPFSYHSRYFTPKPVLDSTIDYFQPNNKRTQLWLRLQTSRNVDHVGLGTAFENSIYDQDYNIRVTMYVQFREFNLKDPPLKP

Target: T1, PCV2 Cap protein (Porcine circovirus 2, UniProt O56129)
T1 construct: made in house; host or cells: E. coli BL21 (pET28a-Cap)
Assay: biochemical
Format: binding, porcine circovirus type II
Protocol: The equilibrium binding constant (KD) of peptides was determined using an Open SPR instrument (Nicoya, Canada). First, purified Cap protein was covalently immobilized on a carboxyl Au colloidal nanoparticles chip. […] Then, all peptides were respectively dissolved in PBS at predetermined concentrations and injected to detect the resonance signal changes. In each cycle, 300 µL of peptide solution was injected into the flow cell of the Cap chip for 5 min. Finally, the data were assessed to determine the association constant (ka, 1/Ms), the dissociation constant (kd, 1/s), the equilibrium binding constant (KD, M), and KD = kd/ka via Trace Drawer 1.7 (Nicoya, Canada).
All the steps were performed according to manufacturer’s instructions. First, the activation of carboxyl chip: the chip is activated by the EDC/NHS reagent in the amine coupling kit. […] The last step is to block the chip with blocking buffer. In every step, The 300 μL sample was flowed through the chip for 5 min at a constant flow rate of 20 μL/min.
Dissociation constant Kd represents the ratio of AB (ie, AB) dissociated in unit time to the initial AB before dissociation, which represents the speed of the dissociation reaction.Equilibrium dissociation constant KD =kd/ka, KD unit is M (mol/L)
1:1 binding interaction model represents the binding mode of ligand and target according to 1:1. […]

Compound: NC(=O)CC[C@H](NC(=O)[C@H](Cc1c[nH]c2ccccc12)NC(=O)[C@H](Cc1c[nH]c2ccccc12)NC(=O)[C@H](Cc1ccc(O)cc1)NC(=O)[C@@H](N)CC(=O)O)C(=O)N[C@@H](CO)C(=O)N[C@@H](Cc1c[nH]c2ccccc12)C(=O)N[C@@H](CCC(=O)O)C(=O)O [Peptide L11]
- pKd: 6.99
